# Measured values as given in article PMC7819943, “Rice protein-binding microarrays: a tool to detect cis-acting elements near promoter regions in rice”.
# By UniProt entry, the sequences of proteins in these tests, tags left out.
# UniProt Q0JBA9, entry or part of it: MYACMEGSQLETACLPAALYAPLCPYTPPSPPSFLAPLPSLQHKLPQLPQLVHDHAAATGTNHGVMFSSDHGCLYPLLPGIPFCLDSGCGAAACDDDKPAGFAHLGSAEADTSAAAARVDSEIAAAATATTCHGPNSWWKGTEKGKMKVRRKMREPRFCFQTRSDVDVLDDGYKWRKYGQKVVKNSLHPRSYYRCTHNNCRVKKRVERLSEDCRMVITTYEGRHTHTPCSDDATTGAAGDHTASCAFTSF
# This is one part of the list.
# Molecular target: OsWRKY34 (Oryza sativa, UniProt Q0JBA9 1-250)
# Test: protein-binding microarray (RPBM); PBS, 2% BSA, 51.3 ng/ul salmon testes DNA, 50 uM zinc acetate, 200 nM TF, 25 C, 1 h; high values mean tight binding
# Details: protein: recombinant; tags: N-terminal polyhistidine and DsRed monomer fusion (pET32a); label: CyDye5-dUTP incorporated in the synthesized complementary strand; 3' TTTTT single-stranded linker to array surface; dsDNA, one strand shown
# In short: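 Binding signal is defined as the fluorescence intensity of each feature in arbitrary units, read on an Axon 4000B scanner. Transcription factors with N-terminal polyhistidine and DsRed fusions came from E. coli BL21-CodonPlus and were purified on Ni–NTA. They were incubated at 200 nM for 1 h at 25 °C on a custom Agilent array that had been made double-stranded with Cy5-dUTP, with 50 µM zinc acetate present, and the array was washed.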
row,Sequence,binding signal
1,AACGTGGAAGTGGATTGGGTGGTGGGTGGGGATCCACCTACGGAGTCACCTAGTGCAG,22100 fluorescence intensity (a.u.)
2,TCTATTTCTTCACCTTTTTATGTTGCTATGGATTGAAATTCGGAGTCACCTAGTGCAG,8260 fluorescence intensity (a.u.)
3,CACTGATGCGGTGATGCCCGCACCGTGCCATCTCTCTCTCCGGAGTCACCTAGTGCAG,9280 fluorescence intensity (a.u.)
4,AGCCACCTTGTCGTTTTCCGCTCCTCACCTGCTCAACTTCCGGAGTCACCTAGTGCAG,9800 fluorescence intensity (a.u.)
5,ACTGGCCGGCCGTCCGTCGTCTTGGCTCGCGGCGGCATCCCGGAGTCACCTAGTGCAG,8620 fluorescence intensity (a.u.)
6,ATCTAGCACCCATCAGTTTTTCAGTAGTAGTGTGTGCAGACGGAGTCACCTAGTGCAG,8490 fluorescence intensity (a.u.)
7,CTAACATGGCATACCTTCCTCTGACCAAAATGTTCGTTCTCGGAGTCACCTAGTGCAG,8490 fluorescence intensity (a.u.)
8,CCACGCTATCCCATGCGATTCGAGAAGGTTCCACACACACCGGAGTCACCTAGTGCAG,8430 fluorescence intensity (a.u.)
9,GGTCAGCGTCTCCTTCCCGGTCTCATATGCCGCCTGCGCGCGGAGTCACCTAGTGCAG,9220 fluorescence intensity (a.u.)
10,CATGTACACACCCACAGTCATCTGCTCATGTTTTCACGGTCGGAGTCACCTAGTGCAG,11500 fluorescence intensity (a.u.)
11,TTAGGTCATTCCCTAATATTTTCGTTTTTCTTTTTTTTTTCGGAGTCACCTAGTGCAG,8870 fluorescence intensity (a.u.)
12,TGATCTTTTGTTTCCTGCTTGGTATAGTATAAGCTCTCATCGGAGTCACCTAGTGCAG,8800 fluorescence intensity (a.u.)
13,CGAAGACACCGGAGCCACCACTCGCCGCCCGCCTATTTCACGGAGTCACCTAGTGCAG,10400 fluorescence intensity (a.u.)
14,CAGTTTACCTGCGCCGCGGCCGCCACAGATTCACACCGCCCGGAGTCACCTAGTGCAG,8440 fluorescence intensity (a.u.)
15,TGCCTCACCACCGGCGACACCATCATGGTGGCCTACAACACGGAGTCACCTAGTGCAG,8270 fluorescence intensity (a.u.)
16,TCCCCACGTTGCATCCCGTCATCCCCATCGAGCGATCCCCCGGAGTCACCTAGTGCAG,9460 fluorescence intensity (a.u.)
17,TGAAAAGAAACGGTCGCCATCACTGTCCTGAGATCTCATCCGGAGTCACCTAGTGCAG,9350 fluorescence intensity (a.u.)
18,TTGGTTTGGTTGCTCCTCGCGCTGTTATTGGTTGCTCCTCCGGAGTCACCTAGTGCAG,19900 fluorescence intensity (a.u.)
19,CCGTTTTTCTTTCCTGTGGCTGCATACATCCCAAAATCAACGGAGTCACCTAGTGCAG,12200 fluorescence intensity (a.u.)
20,TCCCTTTTTTTCCCGTATGGATGCTAAACCCTAATCTATTCGGAGTCACCTAGTGCAG,9060 fluorescence intensity (a.u.)
21,GTGCATACATTCTTTCTTTTTTCCACTCTAGTAATTCATACGGAGTCACCTAGTGCAG,8550 fluorescence intensity (a.u.)
22,TGCACTTACATCTCAACCTGATCTATGTCCTTATGCACTTCGGAGTCACCTAGTGCAG,10200 fluorescence intensity (a.u.)
23,ACCCTTTGTTTTGGTTTGATTTTCAAATCTACATTTATACCGGAGTCACCTAGTGCAG,8120 fluorescence intensity (a.u.)
24,ATTTTTGGTTTTCTGTCATCAGTCATCACCCTTCTCTTTTCGGAGTCACCTAGTGCAG,8820 fluorescence intensity (a.u.)
25,CTGTCCTGTATAGCTATCTCATCTATCTCTTCCCATGCATCGGAGTCACCTAGTGCAG,10500 fluorescence intensity (a.u.)
26,ACCAACCAGTACTTTTGCAATGCCAAAATTTTTGCCACCACGGAGTCACCTAGTGCAG,9040 fluorescence intensity (a.u.)
27,ATCTCTTGTGTTTTATGTGAACCAGTAATTCTTGTCCTTGCGGAGTCACCTAGTGCAG,9750 fluorescence intensity (a.u.)

row,Sequence,binding signal
1,GTCAACACCACCAACGGACAGGGATATCTTTGCAAGTGCTCGGAGTCACCTAGTGCAG,9460 fluorescence intensity (a.u.)
2,TCCCTTGCTGTTTCATTTCGTACGTACTCCGCGCTCGGGACGGAGTCACCTAGTGCAG,13400 fluorescence intensity (a.u.)
3,GGCTCTGGACTCTGGTTGATCAACTCCCTAACTTTTTTTTCGGAGTCACCTAGTGCAG,10100 fluorescence intensity (a.u.)
4,CCAATCTATCAATGCGGACATCTCGATATATATATATATACGGAGTCACCTAGTGCAG,8330 fluorescence intensity (a.u.)
5,GGTAGAGAGGGTTCTTGCTTTGCTTAGCTCCATTGTTTTTCGGAGTCACCTAGTGCAG,9130 fluorescence intensity (a.u.)
6,TCGCTCTTCTCCGACAACCGCGTGCTGCTCCGGCAATTCTCGGAGTCACCTAGTGCAG,9290 fluorescence intensity (a.u.)
7,CGTTGATCATGCATACCTTTACATCTGTCATGAAACACATCGGAGTCACCTAGTGCAG,8850 fluorescence intensity (a.u.)
8,CAGCATTGATCTGGTTTTCCATCGGAATTTGCAGCTTGTCCGGAGTCACCTAGTGCAG,8100 fluorescence intensity (a.u.)
9,CCTGATGTGCTTGTAGGGCGGTGTTCTTGTGTGTGTGTGTCGGAGTCACCTAGTGCAG,9580 fluorescence intensity (a.u.)
10,CCTATTTCGACTACTCTCTTTGTAATTTGTTCTTGTTATCCGGAGTCACCTAGTGCAG,9970 fluorescence intensity (a.u.)
11,GAACGTATTTCTTGCCTATATTATCTTTAATATTTTTTATCGGAGTCACCTAGTGCAG,8780 fluorescence intensity (a.u.)
12,TGCATACCCTCAATCATTTCCTTGTTTTATCTTCTTTCAGCGGAGTCACCTAGTGCAG,8350 fluorescence intensity (a.u.)
13,GCCTCACGTTTGCCAGTTGGGTTGGGACTTGGGATGGGCCCGGAGTCACCTAGTGCAG,10500 fluorescence intensity (a.u.)
14,CAAATACAACCAATCCATCGCCTCGTCTCCATATAAAACCCGGAGTCACCTAGTGCAG,10300 fluorescence intensity (a.u.)
15,GGGCTGCTCCATTATATCTTGCCAATTGTTTTTCATTGTCCGGAGTCACCTAGTGCAG,14400 fluorescence intensity (a.u.)
16,CCACCACCACCACCTCCGATCCGATCTGCTCCACCGCCACCGGAGTCACCTAGTGCAG,12500 fluorescence intensity (a.u.)
17,CCATGTCCTTTCCGCTAGTTGACCGTTAGTTGACTGTTAACGGAGTCACCTAGTGCAG,9680 fluorescence intensity (a.u.)
18,GTCTGCTGGTGTTTTTCGCGCGATGAAAGCGTGGGGAAACCGGAGTCACCTAGTGCAG,9210 fluorescence intensity (a.u.)
19,ATCATGTCGTCGTTGCGTCGTCATCGTTGTTCTTCGTCGACGGAGTCACCTAGTGCAG,9110 fluorescence intensity (a.u.)
20,CGAGTTTGTCTTCTTTTCCCACTGAAGTAATGCTTTATACCGGAGTCACCTAGTGCAG,10400 fluorescence intensity (a.u.)
21,GGGCTAAGGGTTGTTGAGTCGGGTGTGTGGTGTATAAATCCGGAGTCACCTAGTGCAG,11200 fluorescence intensity (a.u.)
22,AAGCTTCCTCACCTCTTTGCTTCCTCACCTTCTTGCCAGACGGAGTCACCTAGTGCAG,9330 fluorescence intensity (a.u.)
23,AACCAAGAAGCCAAAGCTTCCATTGATCACTCGCTCTGCTCGGAGTCACCTAGTGCAG,8380 fluorescence intensity (a.u.)
24,CCCCGCGCCTGTTTTGGCCATCTATACCTACAACACGCGACGGAGTCACCTAGTGCAG,9040 fluorescence intensity (a.u.)
25,GTTCCATACCCAACGTTTGACCGTCCGTCTTATTTGAAAACGGAGTCACCTAGTGCAG,9980 fluorescence intensity (a.u.)
26,TTGCTTGCCTCCGTCCTGATCTCCACTGATTCATTGTGTTCGGAGTCACCTAGTGCAG,9030 fluorescence intensity (a.u.)
27,GAACGGTCAAACATGTTAAAAAAAGTCAACGGCGTCAAATCGGAGTCACCTAGTGCAG,14700 fluorescence intensity (a.u.)

# In another format: entries from further up
row	Sequence	binding signal
9	CCTGATGTGCTTGTAGGGCGGTGTTCTTGTGTGTGTGTGTCGGAGTCACCTAGTGCAG	9580 fluorescence intensity (a.u.)
10	CCTATTTCGACTACTCTCTTTGTAATTTGTTCTTGTTATCCGGAGTCACCTAGTGCAG	9970 fluorescence intensity (a.u.)
11	GAACGTATTTCTTGCCTATATTATCTTTAATATTTTTTATCGGAGTCACCTAGTGCAG	8780 fluorescence intensity (a.u.)
12	TGCATACCCTCAATCATTTCCTTGTTTTATCTTCTTTCAGCGGAGTCACCTAGTGCAG	8350 fluorescence intensity (a.u.)
13	GCCTCACGTTTGCCAGTTGGGTTGGGACTTGGGATGGGCCCGGAGTCACCTAGTGCAG	10500 fluorescence intensity (a.u.)
14	CAAATACAACCAATCCATCGCCTCGTCTCCATATAAAACCCGGAGTCACCTAGTGCAG	10300 fluorescence intensity (a.u.)
15	GGGCTGCTCCATTATATCTTGCCAATTGTTTTTCATTGTCCGGAGTCACCTAGTGCAG	14400 fluorescence intensity (a.u.)
16	CCACCACCACCACCTCCGATCCGATCTGCTCCACCGCCACCGGAGTCACCTAGTGCAG	12500 fluorescence intensity (a.u.)
17	CCATGTCCTTTCCGCTAGTTGACCGTTAGTTGACTGTTAACGGAGTCACCTAGTGCAG	9680 fluorescence intensity (a.u.)
18	GTCTGCTGGTGTTTTTCGCGCGATGAAAGCGTGGGGAAACCGGAGTCACCTAGTGCAG	9210 fluorescence intensity (a.u.)
19	ATCATGTCGTCGTTGCGTCGTCATCGTTGTTCTTCGTCGACGGAGTCACCTAGTGCAG	9110 fluorescence intensity (a.u.)
